From patent US9670212B2, “Inhibitors of PI3K-delta and methods of their use and manufacture” (Exelixis, Inc., priority 2010, dated 2017)
Structures were worked out from names or drawings and are uncertain.

Protein sequences, listed by entry. Tags and fused reporters are not part of them.
UniProt O00329, whole entry: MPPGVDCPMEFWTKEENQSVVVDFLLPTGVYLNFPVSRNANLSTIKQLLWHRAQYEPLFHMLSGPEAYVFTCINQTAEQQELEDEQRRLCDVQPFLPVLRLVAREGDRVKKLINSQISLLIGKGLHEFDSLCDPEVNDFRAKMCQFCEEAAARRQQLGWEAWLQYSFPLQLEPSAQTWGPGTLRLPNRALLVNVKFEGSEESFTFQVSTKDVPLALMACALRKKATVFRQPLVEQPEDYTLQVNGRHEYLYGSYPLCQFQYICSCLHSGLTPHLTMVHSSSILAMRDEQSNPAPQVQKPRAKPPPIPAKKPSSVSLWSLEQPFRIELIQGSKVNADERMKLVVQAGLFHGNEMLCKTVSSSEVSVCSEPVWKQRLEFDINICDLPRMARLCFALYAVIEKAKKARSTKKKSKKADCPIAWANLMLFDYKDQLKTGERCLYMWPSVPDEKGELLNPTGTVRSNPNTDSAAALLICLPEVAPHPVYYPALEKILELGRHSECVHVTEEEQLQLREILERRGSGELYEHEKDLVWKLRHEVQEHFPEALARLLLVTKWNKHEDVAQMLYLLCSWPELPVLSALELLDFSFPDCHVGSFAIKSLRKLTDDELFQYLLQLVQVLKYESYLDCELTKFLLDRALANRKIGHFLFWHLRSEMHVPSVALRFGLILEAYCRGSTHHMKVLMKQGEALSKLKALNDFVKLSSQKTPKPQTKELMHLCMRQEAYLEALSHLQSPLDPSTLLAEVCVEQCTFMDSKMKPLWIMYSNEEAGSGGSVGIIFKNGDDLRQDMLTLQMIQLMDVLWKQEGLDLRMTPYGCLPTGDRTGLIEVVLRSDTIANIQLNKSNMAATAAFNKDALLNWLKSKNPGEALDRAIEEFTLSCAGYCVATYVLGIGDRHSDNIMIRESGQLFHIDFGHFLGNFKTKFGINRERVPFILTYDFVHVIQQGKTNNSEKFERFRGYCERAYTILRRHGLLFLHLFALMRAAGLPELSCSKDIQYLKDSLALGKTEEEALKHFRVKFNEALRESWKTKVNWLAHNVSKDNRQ
UniProt P27986, whole entry partner: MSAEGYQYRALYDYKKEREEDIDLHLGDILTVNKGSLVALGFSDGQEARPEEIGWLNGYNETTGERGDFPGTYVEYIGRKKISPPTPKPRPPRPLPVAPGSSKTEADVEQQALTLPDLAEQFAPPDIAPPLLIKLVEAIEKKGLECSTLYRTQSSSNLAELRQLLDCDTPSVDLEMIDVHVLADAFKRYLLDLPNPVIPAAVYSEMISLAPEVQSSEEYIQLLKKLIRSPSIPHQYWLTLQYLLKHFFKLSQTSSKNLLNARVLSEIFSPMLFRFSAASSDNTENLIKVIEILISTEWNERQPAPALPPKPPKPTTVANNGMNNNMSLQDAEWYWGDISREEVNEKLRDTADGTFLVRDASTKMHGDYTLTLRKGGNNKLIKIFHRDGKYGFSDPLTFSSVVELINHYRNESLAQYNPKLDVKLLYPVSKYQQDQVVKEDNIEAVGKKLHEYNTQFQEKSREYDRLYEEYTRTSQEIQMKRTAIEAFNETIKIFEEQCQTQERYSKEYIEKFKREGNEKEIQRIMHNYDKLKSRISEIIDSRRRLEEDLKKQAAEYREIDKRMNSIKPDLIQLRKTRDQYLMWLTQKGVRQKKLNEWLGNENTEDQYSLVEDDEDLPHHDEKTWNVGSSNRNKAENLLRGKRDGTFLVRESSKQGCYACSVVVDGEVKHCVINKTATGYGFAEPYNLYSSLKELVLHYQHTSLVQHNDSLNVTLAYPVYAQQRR

Each compound was assayed against PI3K delta (Homo sapiens (Human), UniProt O00329) (assay: Luciferase-coupled chemiluminescence kinase assay (KinaseGlo, ATP consumption)). Conditions: read-out: PI3K Delta Activity IC50.
Compound `COc1cc(NCc2cc3cccc(C)c3nc2-c2ccccc2Cl)cc(OC)c1` has an IC50 of 500 to 1500 nM.
`Cc1ccc(S(=O)(=O)N(C)CCN(C)c2nc3c(C)cccc3cc2CNC(=O)c2nccnc2N)cc1` was tested, and the IC50 was 500 to 1500 nM.
`COc1ccc(NCc2cc3cccc(C)c3nc2-c2ccccc2Cl)cc1OC` gave an IC50 of 500 to 1500 nM.
